{"source": "patent US20210106547A1", "about": "“Managing Cardiovascular Conditions Associated with Kidney Disease” (Emory University, priority 2019, published 2021)", "key": {"[1]": {"system": "C57BL/6 wild type mice", "assay": "Phenotypic characteristics of sham and 5/6Nx mice 8 weeks after 5/6 nephrectomy, DMTU by osmotic mini pump", "type": "in vivo, mouse", "method": "(§1) Experiment of C57BL/6 wild type mice. Mice underwent 5/6 nephrectomy surgery. Mice were fed 14% protein diet (0 weeks to 2 weeks), 23% protein diet (2 weeks to 6 weeks), and 40% protein diet (6 weeks to 8 weeks). Mice drank 1% NaCl water one week to six weeks after second surgery, and dimethylthiourea (DMTU; UT-A inhibitor) was administered by osmotic mini pump.\n(§2) Since an increase in UT-A is associated with an increase in fibrosis proteins in vitro and in vivo, experiments were performed to determine whether inhibition of UT-A could prevent fibrosis in the heart of CKD mice. Mice were randomly divided into four cohorts: sham+vehicle, sham+DMTU, 5/6Nx+vehicle, and 5/6Nx+DMTU. Mini-pumps were used for DMTU administration (100 mg/kgBW/day). The phenotypic characteristics of mice were determined 8 weeks after completing the 5/6Nx (Table 1)."}, "[2]": {"system": "C57BL/6 wild type mice", "assay": "Cardiac echocardiographic analysis of mice after 5/6 nephrectomy and DMTU treatment", "type": "in vivo, mouse", "method": "as §1, §2\nBoth intraventricular septum (IVS) and posterior wall thicknesses (PW) were greatest in 5/6Nx+vehicle than all other three groups (Table 2)."}}, "data": [{"smiles": "CNC(=S)NC", "note": "[DMTU, N,N′-dimethylthiourea]", "values": [{"measurement": "Final BW", "setting": "[1]; 5/6Nx + DMTU", "result": "26.4 ± 0.5", "unit": "g"}, {"measurement": "Final BW", "setting": "[1]; sham + DMTU", "result": "25.9 ± 1.1", "unit": "g"}, {"measurement": "BW", "setting": "[2]; 5/6Nx + DMTU", "result": "25.8 ± 0.6", "unit": "g"}, {"measurement": "BW", "setting": "[2]; sham + DMTU", "result": "25.8 ± 1.2", "unit": "g"}]}]}
